Values joined by “and” are separate entries in the source; they are usually repeats but may differ in a detail not shown here. Equal values may be shown once. Where a name gives a salt, the structure may show the parent alone. ± gives the standard deviation of the averaged measurements. The list shows a part of the results. Single values are uncertain here, since repeats match poorly.
What follows are compounds tested on A549 (assay: surface PD-L1 immunofluorescence intensity relative to IFN-gamma-only control (ratio); higher = more PD-L1 expression). Conditions: 10 µM; exposure time 24 h; IFN-gamma 100 ng/mL.

| SMILES | surface PD-L1 immunofluorescence intensity |
| --- | --- |
| CCOC(=O)c1ncc2[nH]c3cccc(OC(C)C)c3c2c1C | 0.882 |
| CN1CC2c3ccccc3Oc3ccc(Cl)cc3C2C1 (stereo unspecified) [Asenapine maleate] | 0.956 ± 0.015 |
| c1ccc2[nH]c(-c3cscn3)nc2c1 [Tiabendazole] | 0.896 |
| Cn1cc(-c2ccc3nnc(C(F)(F)c4ccc5ncccc5c4)n3n2)cn1 | 0.976 |
| CCC(CC)CC1(C(=O)Nc2ccccc2SC(=O)C(C)C)CCCCC1 [Dalcetrapib (JTT-705)] | 1.07 |
| CN1[C@@H](CC(=O)c2ccccc2)CCC[C@H]1C[C@H](O)c1ccccc1 [Lobeline hydrochloride] | 1.13 |
| CN(C)[C@@H]1C(O)=C(C(N)=O)C(=O)[C@@]2(O)C(O)=C3C(=O)c4c(O)ccc(Cl)c4[C@@](C)(O)[C@H]3C[C@@H]12 [Chlortetracycline hydrochloride] | 0.994 |
| CC(=O)N(CC(C)C(=O)O)c1c(I)cc(I)c(N)c1I (stereo unspecified) [Iocetamic acid] | 0.926 |
| CC(C)[C@H](N)C(=O)N[C@H](C(=O)N[C@H](C(=O)O)C(C)C)C(C)C | 0.856 |
| c1ccc(N2CCN(Cc3nc4ccccc4[nH]3)CC2)nc1 [ABT 724 trihydrochloride] | 1.02 |
| COC(=O)c1c(-c2cc(OC)c(OC)c(OC)c2)c2ccnc(OCc3ncccn3)c2c(=O)n1Cc1ccnc(C)c1 [T 0156 hydrochloride] | 0.964 |
| C[C@]12CC[C@@H]3c4ccc(O)cc4CC[C@H]3[C@@H]1CCC2=O [Estrone] | 0.98 ± 0.03 |
| CCOC(=O)C1=C[C@]2(CC)CCCN3CCc4c(n1c1ccccc41)[C@@H]32 [Vinpocetine (Cavinton)] | 1.14 |
| CCOC(=O)C1=C[C@]2(CC)CCCN3CCc4c(n1c1ccccc41)[C@@H]32 [Vinpocetine] | 1.01 ± 0.18 |
| COc1cnc(NS(=O)(=O)c2ccc(N)cc2)nc1 [Sulfameter] | 1.04 |
| O=C(O)CCC(=O)Nc1ccc(S(=O)(=O)Nc2nccs2)cc1 [Succinylsulfathiazole] | 0.954 |
| Cn1cnnc1Sc1c([N+](=O)[O-])ncn1C | 0.96 |
| Cc1cccc(CN2CCN(C(c3ccccc3)c3ccc(Cl)cc3)CC2)c1 (stereo unspecified) [Meclozine dihydrochloride] | 1.05 |
| COc1ccccc1O [Guaiacol] | 1 |
| CNCCC(Oc1ccccc1OC)c1ccccc1 (stereo unspecified) [Nisoxetine hydrochloride] | 1.11 |
| CCCCC(C)(O)C/C=C/[C@H]1[C@H](O)CC(=O)[C@@H]1CCCCCCC(=O)OC (mixture of isomers) [Misoprostol] | 1.09 |
| COc1cc(CCC(C)=O)ccc1O [Vanillylacetone] | 1.03 |
| O=NN(CCCl)C(=O)NC1CCCCC1 [Lomustine (CeeNU)] | 0.936 |
| CC(C)C[C@H](NC(=O)[C@H]1O[C@@H]1C(=O)O)C(=O)NCCCCN=C(N)N | 0.863 |
| CC1(C)NC(=O)N(c2ccc([N+](=O)[O-])c(C(F)(F)F)c2)C1=O [Nilutamide] | 1.11 ± 0.057 |
| N[C@@H](CC(=O)Nc1ccc(Oc2cc(F)c(F)cc2Br)cc1)C(=O)O | 0.939 |

| SMILES | surface PD-L1 immunofluorescence intensity |
| --- | --- |
| Cc1[nH]c(/C=C2\C(=O)Nc3ccc(S(=O)(=O)N(C)c4cccc(Cl)c4)cc32)c(C)c1C(=O)N1CCN(C)CC1 | 0.874 |
| CCCCC(CC)CNC(=N)NC(=N)NCCCCCCNC(=N)NC(=N)NCC(CC)CCCC (stereo unspecified) [Alexidine dihydrochloride] | 0.983 |
| COC(=O)[C@@H]1[C@H]2C[C@H]3c4[nH]c5ccccc5c4CCN3C[C@@H]2CC[C@@H]1O [Yohimbine hydrochloride] | 1.06 ± 0.14 |
| Oc1c2ccccc2c2c3c(cccc13)N=N2 | 1.03 and 1 |
| Nc1nc(=O)c2c([nH]1)NC[C@@H](CNc1ccc(C(=O)N[C@@H](CCC(=O)O)C(=O)O)cc1)N2C=O [Folinic acid calcium salt] | 1.02 |
| COc1ccc2cc([C@@H](C)C(=O)O)ccc2c1 [(R) -Naproxen sodium salt] | 0.944 |
| CC(C)NCC(O)COc1cccc2ccccc12 (stereo unspecified) [Propranolol hydrochloride] | 0.996 |
| Cc1nc(NC(=O)N2CCC[C@H]2C(N)=O)sc1-c1ccnc(C(C)(C)C(F)(F)F)c1 | 0.891 |
| Cc1c[nH]c(=O)n(CCCN2CCN(c3ccccc3OCC(F)(F)F)CC2)c1=O | 0.959 |
| O=C1CCc2cc(OCCCCc3nnnn3C3CCCCC3)ccc2N1 [Cilostazol] | 1.04 ± 0.1 |
| N#C[C@@H]1C[C@@H]2C[C@@H]2N1C(=O)[C@@H](N)C12CC3CC(CC(O)(C3)C1)C2 | 0.914 |
| CCS(=O)(=O)CCn1c([N+](=O)[O-])cnc1C [Tinidazole] | 1.05 |
| C[C@H](CC[C@@H]1OC1(C)C)[C@H]1CC[C@H]2[C@@H]3CC=C4C[C@@H](O)CC[C@]4(C)[C@H]3CC[C@]12C [24(S),25-Epoxycholesterol] | 1.14 |
| CCCCOc1cc(C(=O)NCCN(CC)CC)c2ccccc2n1 [Dibucaine] | 0.887 |
| Oc1ccc(-c2nc3cc(O)cc(Br)c3o2)cc1 | 0.914 |
| O=P(O)(O)C(Cl)(Cl)P(=O)(O)O [Clodronate] | 0.998 |
| Cc1coc2c1C(=O)C(=O)c1c-2ccc2c(C)cccc12 [Tanshinone I] | 1.03 |
| Cc1ccccc1-n1c(Cn2nc(-c3cccc(O)c3)c3c(N)ncnc32)nc2cccc(C)c2c1=O | 0.998 |
| CCC1=C(C)CN(C(=O)NCCc2ccc(S(=O)(=O)NC(=O)N[C@H]3CC[C@H](C)CC3)cc2)C1=O [Glimepiride] | 0.969 ± 0.034 |
| Nc1ncnc2c1ncn2[C@@H]1O[C@H](COP(=O)(O)OP(=O)(O)OP(=O)(O)O)[C@@H](O)[C@H]1O [ATP (Adenosine-Triphosphate)] | 1.11 |
| CC(C)Oc1ccc2c(=O)c3cc(C(=O)O)ccc3oc2c1 | 1.01 |
| CC(=O)N[C@H]1[C@H]([C@H](O)[C@H](O)CO)OC(C(=O)O)=C[C@@H]1NC(=N)N [Zanamivir (Relenza)] | 0.952 |
| Cc1c(C(=O)NN2CCOCC2)nn(-c2ccc(Cl)cc2Cl)c1-c1ccc(I)cc1 | 1 |
| O=C(c1cc(O)c(O)c(O)c1)c1ccc(O)c(O)c1O [Exifone] | 1.01 |
| CCN1CC(CCN2CCOCC2)C(c2ccccc2)(c2ccccc2)C1=O (stereo unspecified) [Doxapram HCl] | 1.06 |

15 entries from above, set out differently:
SMILES,surface PD-L1 immunofluorescence intensity
N#C[C@@H]1C[C@@H]2C[C@@H]2N1C(=O)[C@@H](N)C12CC3CC(CC(O)(C3)C1)C2,0.914
CCS(=O)(=O)CCn1c([N+](=O)[O-])cnc1C [Tinidazole],1.05
"C[C@H](CC[C@@H]1OC1(C)C)[C@H]1CC[C@H]2[C@@H]3CC=C4C[C@@H](O)CC[C@]4(C)[C@H]3CC[C@]12C [24(S),25-Epoxycholesterol]",1.14
CCCCOc1cc(C(=O)NCCN(CC)CC)c2ccccc2n1 [Dibucaine],0.887
Oc1ccc(-c2nc3cc(O)cc(Br)c3o2)cc1,0.914
O=P(O)(O)C(Cl)(Cl)P(=O)(O)O [Clodronate],0.998
Cc1coc2c1C(=O)C(=O)c1c-2ccc2c(C)cccc12 [Tanshinone I],1.03
Cc1ccccc1-n1c(Cn2nc(-c3cccc(O)c3)c3c(N)ncnc32)nc2cccc(C)c2c1=O,0.998
CCC1=C(C)CN(C(=O)NCCc2ccc(S(=O)(=O)NC(=O)N[C@H]3CC[C@H](C)CC3)cc2)C1=O [Glimepiride],0.969 ± 0.034
Nc1ncnc2c1ncn2[C@@H]1O[C@H](COP(=O)(O)OP(=O)(O)OP(=O)(O)O)[C@@H](O)[C@H]1O [ATP (Adenosine-Triphosphate)],1.11
CC(C)Oc1ccc2c(=O)c3cc(C(=O)O)ccc3oc2c1,1.01
CC(=O)N[C@H]1[C@H]([C@H](O)[C@H](O)CO)OC(C(=O)O)=C[C@@H]1NC(=N)N [Zanamivir (Relenza)],0.952
Cc1c(C(=O)NN2CCOCC2)nn(-c2ccc(Cl)cc2Cl)c1-c1ccc(I)cc1,1
O=C(c1cc(O)c(O)c(O)c1)c1ccc(O)c(O)c1O [Exifone],1.01
CCN1CC(CCN2CCOCC2)C(c2ccccc2)(c2ccccc2)C1=O (stereo unspecified) [Doxapram HCl],1.06
